Measured data: PubChem BioAssay AID743454 (Peter MacCallum Cancer Centre, 2014)
The whole screen tested about 18,000 reagents; below is an unselected part. In the full data, 450 (2.5%) got an active call. 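Single biological run; no consistent viability z cut-off exists, so the class columns, not z-scores, define the calls.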

- Purpose: 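Knock-downs lowering viability or raising caspase 3/7 activity in vorinostat-treated resistant cells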 (primary screen)
- Cell system: human HCT116-VR colon cancer cells, selected for vorinostat resistance
- Reagent: siRNA pool against human genes, 40 nM siRNA pool
- Duration: vorinostat for 24 h, read-out about 72 h after transfection
- Conditions: vorinostat at 2.5 µM final
- Measured: 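Two measures, CellTiter-Fluor viability and luminescent caspase 3/7 activity, each as fold change against same-plate mock wells, mean of duplicates, then screen-wide robust z-score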
- Direction: viability robust z-score: higher = more viable cells than screen typical; caspase robust z-score: higher = more caspase 3/7 activity than screen typical
- Call rule: 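a knock-down is a hit when classed RV1 or RV2 for lowered viability, or CA1 or CA2 for caspase activation; those lethal without drug were dropped; hits were retested singly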

no.	target	PubChem SID	viability hit class	caspase hit class	viability robust z-score	caspase robust z-score	activity call
1	CREB3L4	SID134315229	no change	no change	-0.17	-0.84	inactive
2	REPIN1	SID152149680	no change	no change	-0.98	0.76	inactive
3	CASTOR1	SID135625422	no change	no change	0.66	-0.16	inactive
4	ACOT11	SID134313512	no change	no change	0.16	1.32	inactive
5	GOLGA6A	SID152148415	no change	no change	-0.27	0.57	inactive
6	CD1D	SID152155067	no change	no change	-0.64	-0.54	inactive
7	SLC35E4	SID135624992	no change	no change	0.29	0.1	inactive
8	TMOD2	SID134324073	no change	no change	-1.43	0.13	inactive
9	TMOD1	SID152148804	no change	no change	-0.27	2.36	inactive
10	OLR1	SID152148608	no change	no change	-0.58	1.82	inactive
11	DPP10	SID135621684	no change	no change	0.54	-1.04	inactive
12	SCN7A	SID152155226	no change	no change	-0.33	0.61	inactive
13	SCUBE1	SID135623378	no change	CA2 (caspase activation)	-1.96	5.42	active
14	ARMC10	SID134322067	no change	no change	-0.8	-1.23	inactive
15	UBE2S	SID152155180	no change	no change	-0.72	1.85	inactive
16	CNTLN	SID152148351	no change	no change	0.76	0.46	inactive
17	ERICH6	SID152151749	no change	no change	-0.36	-0.84	inactive
18	CLDN19	SID134320233	no change	no change	1.28	0	inactive
19	FAM234B	SID152153698	no change	no change	-0.12	-0.6	inactive
20	CARD18	SID134314607	no change	no change	0.94	-0.65	inactive
21	ILF2	SID134321528	no change	no change	0.68	0.2	inactive
22	EIF4EBP3	SID135623767	no change	no change	-0.04	-0.59	inactive
23	ZNF660	SID134322009	no change	no change	1.28	-0.47	inactive

Quoted from the listing (4 entries):
no.	target	PubChem SID	viability hit class	caspase hit class	viability robust z-score	caspase robust z-score	activity call
14	ARMC10	SID134322067	no change	no change	-0.8	-1.23	inactive
15	UBE2S	SID152155180	no change	no change	-0.72	1.85	inactive
16	CNTLN	SID152148351	no change	no change	0.76	0.46	inactive
17	ERICH6	SID152151749	no change	no change	-0.36	-0.84	inactive
